The text below walks through data of PubChem BioAssay AID248 (DTP/NCI, 2004).

This assay relates to L1210 leukemia ip in BDF1 mice, survival T/C. The assay can be described thus: NCI In Vivo Anticancer Drug Screen. Data for tumor model L1210 Leukemia (intraperitoneal) in B6D2F1 (BDF1) mice. The conditions noted are these: T/C endpoint: mean survival time, higher T/C = longer survival.
[1] abbreviates: dose: 125.0 mg/kg/injection, schedule: Q01DX Z (ip), vehicle: saline.
Where [2] appears, read: dose: 250.0 mg/kg/injection, schedule: Q01DX Z (ip), vehicle: saline.
Setting [3] is: dose: 500.0 mg/kg/injection, schedule: Q01DX Z (ip), vehicle: saline.
Where [4] appears, read: dose: 10.0 mg/kg/injection, schedule: Q01DX001 (ip), vehicle: saline.
Setting [5] is: dose: 20.0 mg/kg/injection, schedule: Q01DX001 (ip), vehicle: saline.
[6] abbreviates: dose: 40.0 mg/kg/injection, schedule: Q01DX001 (ip), vehicle: saline.
[7] abbreviates: dose: 100.0 mg/kg/injection, schedule: Q01DX001 (ip), vehicle: saline.
Setting [8] is: dose: 200.0 mg/kg/injection, schedule: Q01DX001 (ip), vehicle: saline.
Setting [9] is: dose: 400.0 mg/kg/injection, schedule: Q01DX001 (ip), vehicle: saline.

SMILES strings stand for the structures. The list is a part of this screen's results and no random one: it gathers some chemical classes. Not every dose and run of a compound is shown. T/C: endpoint of the treated group in % of that of the vehicle group. Some doses have a count of surviving animals in place of a T/C: the source holds a T/C of zero for them, seemingly a mark for toxic or unscored doses. Some survivor counts are full or nearly so, which does not show that the dose was tolerated: survival well below the control is almost never listed, so the zero probably covers shortened survival too. Counts of survivors are from the toxicity check (mostly the fifth day) where no day follows; animals may have died later. Schedule codes are those of the source, taken here to give the interval after Q, in days (D) or hours (H), and the number of doses after X. Some schedule codes hold Z or #, which are not explained here. For survival time, the PubChem record calls one and a half times the control and up active, and a quarter to a half above the control has no call in these data; cut-offs in other NCI protocols can differ. Some entries show no survivor count and are marked so; the dose need not have been tolerated. Some T/C values are followed by the survivors on the day toxicity was checked, most often the fifth; where neither a count nor a note follows, no animal had died by that day.

`CO/C(N)=N\[N+](=O)[O-]`: the T/C reads like this: (dose: 8.0 mg/kg/injection, schedule: Q01DX Z (ip), vehicle: saline) 95 % of control; (dose: 16.0 mg/kg/injection, schedule: Q01DX Z (ip), vehicle: saline) 96 % of control; (dose: 31.0 mg/kg/injection, schedule: Q01DX Z (ip), vehicle: saline) 104 % of control; (dose: 62.0 mg/kg/injection, schedule: Q01DX Z (ip), vehicle: saline) 98 % of control; under setting [1], 104 % of control; under setting [2], 101 % of control. Besides, the survivor count under setting [3] is given as 0 of 6.
Take `CN(C)P(N)(Cl)(c1ccccc1)c1ccccc1`: the T/C is, setting by setting: under setting [4], 111 % of control; under setting [5], 114 % of control; under setting [6], 117 % of control. Moreover, the survivor count reads like this: under setting [7], 0 of 6; under setting [8], 0 of 6; under setting [9], 1 of 6.
Turning to `CCOP(=O)(NCCCO)N(CCCl)CCCl` (configuration not stated), the T/C is, setting by setting: (dose: 28.0 mg/kg/injection, schedule: Q01DX Z (ip), vehicle: methylcellulose (MC)) 110 % of control; (dose: 56.0 mg/kg/injection, schedule: Q01DX Z (ip), vehicle: methylcellulose (MC)) 88 % of control. The survivor count is, setting by setting: (dose: 112.0 mg/kg/injection, schedule: Q01DX Z (ip), vehicle: methylcellulose (MC)) 4 of 6; (dose: 225.0 mg/kg/injection, schedule: Q01DX Z (ip), vehicle: methylcellulose (MC)) 3 of 6.
For the compound `O=P(Cl)(CCl)c1ccccc1` (configuration not stated), the T/C by setting is: (dose: 9.37 mg/kg/injection, schedule: Q01DX009 (ip), vehicle: saline) 96 % of control; (dose: 18.75 mg/kg/injection, schedule: Q01DX009 (ip), vehicle: saline) 96 % of control; (dose: 18.75 mg/kg/injection, schedule: Q04DX003 (ip), vehicle: acetone) 94 % of control; (dose: 37.5 mg/kg/injection, schedule: Q01DX009 (ip), vehicle: saline) 95 % of control; (dose: 37.5 mg/kg/injection, schedule: Q04DX003 (ip), vehicle: acetone) 94 % of control; (dose: 75.0 mg/kg/injection, schedule: Q01DX001 (ip), vehicle: acetone) 94 % of control. Moreover, the T/C (dose: 75.0 mg/kg/injection, schedule: Q04DX003 (ip), vehicle: acetone) is 98 % of control [5 of 6 alive]. Also, the survivor count by setting is: (dose: 150.0 mg/kg/injection, schedule: Q01DX001 (ip), vehicle: acetone) 3 of 6; (dose: 300.0 mg/kg/injection, schedule: Q01DX001 (ip), vehicle: acetone) 0 of 6.
As for `CN(C)[P+](N)(N(C)C)N(C)C.F[P-](F)(F)(F)(F)F`, the T/C is, setting by setting: (dose: 100.0 mg/kg/injection, schedule: Q01DX001 (ip), vehicle: other) 93 % of control; (dose: 200.0 mg/kg/injection, schedule: Q01DX001 (ip), vehicle: other) 107 % of control. In addition, the survivor count (dose: 400.0 mg/kg/injection, schedule: Q01DX001 (ip), vehicle: other) is 1 of 6.
For the compound `CCOP1OC(C)C(C)(C)O1` (configuration not stated), the T/C runs as follows: under setting [7], 102 % of control; under setting [8], 104 % of control; under setting [9], 98 % of control.
As for `C[CH2][Pb]([C]#N)([CH2]C)[CH2]C`, the T/C runs as follows: (dose: 12.5 mg/kg/injection, schedule: Q04DX002 (ip), vehicle: saline with Tween-80) 97 % of control; (dose: 25.0 mg/kg/injection, schedule: Q04DX002 (ip), vehicle: saline with Tween-80) 93 % of control; (dose: 50.0 mg/kg/injection, schedule: Q04DX002 (ip), vehicle: saline with Tween-80) 101 % of control. In addition, the survivor count (dose: 100.0 mg/kg/injection, schedule: Q04DX002 (ip), vehicle: saline with Tween-80) is listed as 0 of 3; the survivor count (dose: 200.0 mg/kg/injection, schedule: Q04DX002 (ip), vehicle: saline with Tween-80) was 0 of 3; the survivor count (dose: 400.0 mg/kg/injection, schedule: Q04DX002 (ip), vehicle: saline with Tween-80) was 0 of 3.
With `NC1CCCCC1.O=P(O)(N(CCCl)CCCl)N1CCCC1`, the survivor count runs as follows: (dose: 8.0 mg/kg/injection, schedule: Q01DX Z (ip), vehicle: other) 6 of 6; under setting [2], 0 of 6; under setting [3], 0 of 6. In addition, the T/C by setting is: (dose: 16.0 mg/kg/injection, schedule: Q01DX Z (ip), vehicle: other) 98 % of control; (dose: 32.0 mg/kg/injection, schedule: Q01DX Z (ip), vehicle: other) 98 % of control; (dose: 62.5 mg/kg/injection, schedule: Q01DX Z (ip), vehicle: saline) 98 % of control; (dose: 64.0 mg/kg/injection, schedule: Q01DX Z (ip), vehicle: other) 117 % of control; under setting [1], 93 % of control.
In the case of `[N-]=[N+]=Nc1c([N+](=O)[O-])cc([N+](=O)[O-])cc1[N+](=O)[O-]`, the T/C reads like this: (dose: 5.0 mg/kg/injection, schedule: Q01DX001 (ip), vehicle: saline) 100 % of control [survivor count not shown]; under setting [4], 102 % of control [survivor count not shown]; under setting [5], 96 % of control [survivor count not shown]; under setting [6], 100 % of control [survivor count not shown]; (dose: 80.0 mg/kg/injection, schedule: Q01DX001 (ip), vehicle: saline) 96 % of control [survivor count not shown].
With `NC1CCCCC1.O=P(O)(Oc1ccccc1)N(CCCl)CCCl`, the T/C by setting is: (dose: 62.5 mg/kg/injection, schedule: Q01DX010 (ip), vehicle: saline) 98 % of control; (dose: 125.0 mg/kg/injection, schedule: Q01DX010 (ip), vehicle: saline) 89 % of control [5 of 6 alive]; (dose: 250.0 mg/kg/injection, schedule: Q01DX010 (ip), vehicle: saline) 104 % of control.
With `O=C(Nc1ccccc1[N+](=O)[O-])c1cc([N+](=O)[O-])cc([N+](=O)[O-])c1`, the T/C (dose: 12.5 mg/kg/injection, schedule: Q01DX009 (ip), vehicle: Klucel (hydroxypropylcellulose) (HPC)) was 92 % of control; the T/C (dose: 25.0 mg/kg/injection, schedule: Q01DX009 (ip), vehicle: Klucel (hydroxypropylcellulose) (HPC)) was 90 % of control; the T/C (dose: 25.0 mg/kg/injection, schedule: Q04DX003 (ip), vehicle: Klucel (hydroxypropylcellulose) (HPC)) is 100 % of control; the T/C (dose: 50.0 mg/kg/injection, schedule: Q01DX009 (ip), vehicle: Klucel (hydroxypropylcellulose) (HPC)) was 89 % of control; the T/C (dose: 50.0 mg/kg/injection, schedule: Q04DX003 (ip), vehicle: Klucel (hydroxypropylcellulose) (HPC)) is 97 % of control.
Consider `CC(C)=CCN1CCN(CCCl)CC1`, for which the T/C (dose: 25.0 mg/kg/injection, schedule: Q04DX002 (ip), vehicle: saline) is 107 % of control and the T/C (dose: 50.0 mg/kg/injection, schedule: Q04DX002 (ip), vehicle: saline) is 101 % of control. In addition, the survivor count reads like this: (dose: 100.0 mg/kg/injection, schedule: Q04DX002 (ip), vehicle: saline) 2 of 3; (dose: 200.0 mg/kg/injection, schedule: Q04DX002 (ip), vehicle: saline) 0 of 3; (dose: 400.0 mg/kg/injection, schedule: Q04DX002 (ip), vehicle: saline) 0 of 3.
In the case of `BrP(c1ccccc1)c1ccccc1`, the T/C reads like this: (dose: 100.0 mg/kg/injection, schedule: Q04DX003 (ip), vehicle: Klucel (hydroxypropylcellulose) (HPC)) 101 % of control; (dose: 200.0 mg/kg/injection, schedule: Q04DX003 (ip), vehicle: Klucel (hydroxypropylcellulose) (HPC)) 97 % of control; (dose: 400.0 mg/kg/injection, schedule: Q04DX003 (ip), vehicle: Klucel (hydroxypropylcellulose) (HPC)) 94 % of control.
